Experimental data reported in PubChem BioAssay AID2685 (National Center for Advancing Translational Sciences (NCATS), 2010).
This is one part of the list. Further columns of the screen follow, without active or inactive calls. Most of these compounds were active or inconclusive in the main read-out, so they are no random draw. The note in brackets gives the kind of curve behind each potency; many fits are weak.

Assay: qHTS Assay for Lipid Storage Modulators in Drosophila S3 Cells;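 as to cell number change: cells counted by Cell Tracker Red CMTPX staining in the red channel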
Settings: BODIPY lipid droplet fluorescence, 18-24 h; for cell number change: measured here: cell count max response, cells fed with added oleic acid
In short: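 Drosophila S3 cells got compounds at several concentrations plus oleic acid (400 uM solution). Laser-scanning cytometry with 488 nm excitation read lipid droplets at 500-530 nm and cells at 575-640 nm. Percent activity was relative to 20 uM Triacsin C.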

[1] = measured here: lipid fluorescence (Fed channel) AC50, cells fed with added oleic acid
[2] = measured here: cell number channel AC50, cells fed with added oleic acid

Structure (SMILES): O=C(NC(=S)Nc1ccc(F)cc1)C1CCCCC1
- cell number change: -2.93%

Structure (SMILES): COc1cc(/C=C/CN2CCC(CO)(CC3CCCCO3)CC2)ccc1O (centres undefined)
- cell number change: -9.89%
- AC50 [1]: 32.6 µM [falling, single point]

Structure (SMILES): CCNc1nc(NCC)n2c(SCC(=O)O)nnc2n1
- AC50 [1]: 23.1 µM [falling, partial curve]

Structure (SMILES): COC(=O)c1ccccc1NC(=O)CN1CCN(C(=O)c2ccco2)CC1
- cell number change: 12.8%

Structure (SMILES): CCCCCCCCC[n+]1cccc2c3ccccc3ccc21
- cell number change: -24.4%
- AC50 [2]: 4.11 µM [falling, partial curve, poor fit]

Structure (SMILES): N#Cc1nc(-c2ccco2)oc1N1CCC(Cc2ccccc2)CC1
- cell number change: 57.1%
- AC50 [2]: 11.6 µM [rising, partial curve]
- AC50 [1]: 14.6 µM [rising, partial curve]

Structure (SMILES): O=C(NC1CC2CCC(C1)N2Cc1ccccc1)c1ccccc1Cl (centres undefined)
- cell number change: 2.71%
- AC50 [1]: 32.6 µM [rising, single point]

Structure (SMILES): CC1CCN(C(=O)CSc2nc(C3CC3)nc3ccccc23)CC1
- cell number change: 10%
- AC50 [1]: 0.58 µM [rising, single point]

Structure (SMILES): CC(C)Oc1ccc(N2CC(C(=O)Nc3ccccn3)CC2=O)cc1 (centres undefined)
- cell number change: -5.56%
- AC50 [1]: 6.51 µM [falling, single point]

Structure (SMILES): COc1cc(CCC(=O)Nc2ccc(C)c(S(=O)(=O)N3CCCCCC3)c2)cc(OC)c1OC
- cell number change: 15%
- AC50 [2]: 1.3 µM [rising, partial curve]
- AC50 [1]: 29.1 µM [falling, single point]

Structure (SMILES): COc1ccc(S(=O)(=O)N2CCSC2C)cc1C (centres undefined)
- AC50 [1]: 0.731 µM [falling, partial curve, poor fit]

Structure (SMILES): O=C(N/N=C/c1ccco1)c1cc(-c2ccncc2)nc2ccccc12
- cell number change: -17.4%
- AC50 [1]: 1.84 µM [falling, partial curve, poor fit]

Structure (SMILES): CN1CCN(S(=O)(=O)c2ccc(Oc3cccc(C(F)(F)F)c3)nc2)CC1
- cell number change: -12.8%
- AC50 [1]: 8.2 µM [falling, partial curve]

Structure (SMILES): COc1ccc(NC(=O)N2CCC(c3ccccc3)C2)c(OC)c1 (centres undefined)
- cell number change: -45.3%
- AC50 [2]: 5.17 µM [falling, partial curve]
- AC50 [1]: 6.51 µM [falling, single point]

Structure (SMILES): Cc1cc(C)nc(N/N=C/c2ccccc2OCc2ccc(Br)cc2)n1
- cell number change: 17%
- AC50 [1]: 32.6 µM [falling, single point]

Structure (SMILES): O=C(/C=C/c1ccccc1Cl)Nc1ccccc1
- cell number change: -3.07%
- AC50 [1]: 0.092 µM [falling, full curve, poor fit]

Structure (SMILES): CCCOC(=O)/C(=C\C=C\c1ccco1)NC(=O)c1ccccc1
- cell number change: -28.8%
- AC50 [1]: 0.13 µM [falling, full curve, poor fit]

Structure (SMILES): COc1ccc(NC(=O)Cn2c(C)cc(=O)c3ccccc32)cc1
- cell number change: -30.1%
- AC50 [2]: 14.6 µM [falling, single point]
- AC50 [1]: 16.4 µM [falling, single point]

Structure (SMILES): O=C(c1ccc(Cl)cc1)N(c1ccccn1)C1CCCCC1
- cell number change: -10.2%

Structure (SMILES): O=C(NCc1ccccc1)c1c[nH]c2ccccc2c1=O
- cell number change: -7.14%
- AC50 [1]: 29.1 µM [falling, single point]

Structure (SMILES): COc1cccc(CN(C)C(=O)CN2C(=O)NC(c3ccccc3)(c3ccccc3)C2=O)c1
- cell number change: -12%
- AC50 [1]: 2.91 µM [falling, single point]

Structure (SMILES): O=C(NCc1ccncc1)C(=O)N/N=C/c1ccccc1OCc1ccccc1
- cell number change: -64.9%
- AC50 [2]: 23.1 µM [falling, partial curve, poor fit]
- AC50 [1]: 20.6 µM [falling, partial curve, poor fit]

Structure (SMILES): CCCOc1ccc(-c2nc(N)n[nH]2)cc1
- cell number change: 147%
- AC50 [1]: 23.1 µM [rising, partial curve]

Structure (SMILES): CC(C)NC(=O)c1cccc(C(F)(F)F)c1
- cell number change: 7.42%
- AC50 [1]: 6.51 µM [falling, single point]

Structure (SMILES): CCN(CC)c1ccc(CNC(=O)C/C(C)=N/NC(=O)COc2ccc(C)cc2Br)cc1
- AC50 [1]: 5.17 µM [falling, single point]

Structure (SMILES): O=C(CSc1nnc(-c2ccccc2)o1)NCC1CCCCC1
- cell number change: -15.2%
- AC50 [1]: 29.1 µM [falling, single point]

Structure (SMILES): Cc1cc2sc3ccccc3c(=O)c2c(C)c1O
- cell number change: 24.6%
- AC50 [1]: 9.2 µM [rising, partial curve]

Structure (SMILES): CCn1cc(S(=O)(=O)Nc2cc(C)ccc2F)cn1
- cell number change: 13.2%
- AC50 [1]: 6.51 µM [falling, single point]

Structure (SMILES): Cc1nc(NN)c2c3c(sc2n1)COC(C)(C)C3
- cell number change: 26.3%
- AC50 [1]: 3.26 µM [rising, partial curve, poor fit]

Structure (SMILES): COc1ccc(CNC(=O)CC2C(=O)NCCN2C2Cc3ccccc3C2)cc1 (centres undefined)
- cell number change: 21.3%

Structure (SMILES): CCOC(=O)c1ccc2c(c1)nc(COc1ccccc1C#N)n2CC
- cell number change: 21.6%
- AC50 [1]: 0.103 µM [rising, full curve]

Structure (SMILES): C=C(C)Cn1c(COc2ccccc2)nnc1SCC(=O)O
- cell number change: -15.9%
- AC50 [1]: 1.03 µM [falling, full curve, poor fit]

Structure (SMILES): Cc1cc2nc(C)n(CCCNC(=O)Nc3cccc4ccccc34)c2cc1C
- AC50 [2]: 6.51 µM [rising, single point]

Structure (SMILES): COc1ccc2[nH]c(=O)c(CNc3ccccc3OC)cc2c1
- cell number change: -24.2%
- AC50 [1]: 0.00461 µM [rising, full curve, poor fit]

Structure (SMILES): C=CCNC(=S)NNC(=O)c1cccnc1
- cell number change: -31.9%
- AC50 [2]: 6.51 µM [falling, full curve, poor fit]
- AC50 [1]: 29.1 µM [falling, single point]

Structure (SMILES): O=C(Nc1nnc(-c2ccco2)o1)c1ccc(S(=O)(=O)N2CCOCC2)cc1
- cell number change: -1.56%
- AC50 [2]: 0.092 µM [rising, full curve, poor fit]

Structure (SMILES): NNc1nc2cc3c(cc2s1)OCCO3
- cell number change: 10.4%
- AC50 [1]: 6.51 µM [falling, partial curve, poor fit]

Structure (SMILES): Cc1ccc(C(=O)Nc2ccc3c(c2)C(=O)N(C)C3=O)c(C)c1
- cell number change: 5.69%
- AC50 [1]: 3.66 µM [rising, full curve]

Structure (SMILES): COc1ccccc1CNC(=O)C1CCN(C(=O)[C@@H]2Cc3ccccc3CN2)CC1
- cell number change: -13.7%

Structure (SMILES): CCCCOc1ccc(C2C3CN(C(=O)OCC)CC=C3C(C#N)=C(N)C2(C#N)C#N)cc1OC (centres undefined)
- cell number change: -25.5%
- AC50 [1]: 0.58 µM [rising, single point]

Structure (SMILES): FCCCOc1ccc(-c2nccc(-c3ccc(Cl)cc3)n2)cc1
- cell number change: 38.7%
- AC50 [2]: 20.6 µM [rising, single point]
- AC50 [1]: 20.6 µM [rising, single point]

Structure (SMILES): CCOc1ccc(C(C)=O)cc1N1C(=O)C2C3C=CC(C3)C2C1=O (centres undefined)
- cell number change: 6.28%
- AC50 [1]: 29.1 µM [rising, single point]

Structure (SMILES): O=C(/C=C/C(=O)N1CCc2ccccc2C1)N1CCc2ccccc2C1
- cell number change: -26.1%

Structure (SMILES): CCC(C)n1c(=O)c(C(=O)Nc2ccccc2S(N)(=O)=O)c(O)c2ccccc21 (centres undefined)
- cell number change: -5.99%
- AC50 [1]: 0.92 µM [falling, full curve]

Structure (SMILES): N#CNc1nc(O)cc(=O)[nH]1
- cell number change: 27.4%

Structure (SMILES): O=C(Cc1n[nH]c(=O)c2ccccc12)NC(c1ccccc1)c1ccccc1
- cell number change: 8.49%
- AC50 [1]: 13 µM [rising, partial curve]

Structure (SMILES): CC1(C)CCCC2=C1CC1C(=O)N(O)C(=O)C1C2 (centres undefined)
- cell number change: 1.41%

Structure (SMILES): O=C1COc2ccc(C(=O)COC(=O)CNS(=O)(=O)c3cccc(F)c3)cc2N1
- cell number change: -27.3%
- AC50 [2]: 2.91 µM [falling, full curve, poor fit]
- AC50 [1]: 29.1 µM [rising, single point]

Structure (SMILES): Cc1ccc(OCCN2CCN(C)CC2)c([N+](=O)[O-])c1
- cell number change: -0.402%

Structure (SMILES): CCCC(=O)O[C@]1(C(=O)CO)CC[C@H]2[C@@H]3CCC4=CC(=O)CC[C@]4(C)[C@H]3[C@@H](O)C[C@@]21C
- cell number change: 11.6%
- AC50 [1]: 0.146 µM [rising, full curve, poor fit]

Structure (SMILES): Cc1nn(CC(=O)NCC2CCCO2)c(=O)c2cc3ccccc3n12 (centres undefined)
- cell number change: -6.11%
- AC50 [1]: 29.1 µM [falling, single point]

Structure (SMILES): Cc1c(CCC(=O)NC2CC2)c(=O)oc2c(C)c(O)ccc12
- cell number change: -31.4%
- AC50 [2]: 13 µM [falling, partial curve, poor fit]

Structure (SMILES): c1ccc(CNc2nc3ccccc3n3cnnc23)nc1
- cell number change: 4.03%
- AC50 [1]: 6.51 µM [rising, partial curve, poor fit]

Structure (SMILES): COc1ccc(-c2nn(-c3ccccc3)cc2/C=C/C(=O)O)cc1[N+](=O)[O-]
- cell number change: -10.8%
- AC50 [1]: 0.92 µM [falling, full curve, poor fit]

Structure (SMILES): Cc1ccc(C(C(=O)NCc2ccc(F)cc2)N(Cc2ccco2)C(=O)c2snc(C(N)=O)c2N)o1 (centres undefined)
- AC50 [1]: 29.1 µM [falling, single point]

Structure (SMILES): COc1ccc(C(=O)CSc2nc3ncccc3[nH]2)cc1OC
- cell number change: 7.6%
- AC50 [1]: 5.8 µM [rising, partial curve, poor fit]

Structure (SMILES): CCNC(=O)COC(=O)Cc1ccc(Cl)cc1Cl
- cell number change: -2.04%
- AC50 [1]: 2.06 µM [rising, partial curve]

Structure (SMILES): Cn1c(N)c(C(=O)COC(=O)c2cc(-c3ccco3)nc3ccccc23)c(=O)n(C)c1=O
- cell number change: -44.6%
- AC50 [2]: 18.4 µM [falling, single point]
- AC50 [1]: 4.11 µM [rising, full curve]

Structure (SMILES): Cc1cc(C(=O)N/N=C\c2cc(C(C)(C)C)ccc2O)n[nH]1
- cell number change: -29.7%

Structure (SMILES): N=c1c(C(=O)NCc2ccc(F)cc2)cc2c(=O)n3ccccc3nc2n1CCCN1CCOCC1
- cell number change: 14.3%
- AC50 [1]: 0.184 µM [rising, full curve, poor fit]

Structure (SMILES): CCc1cc2c(=O)c(-c3ccon3)c(N)oc2cc1OC
- cell number change: -5.73%
- AC50 [1]: 0.291 µM [rising, full curve, poor fit]

Structure (SMILES): c1coc(C2=Nc3cccc4cccc(c34)N2)c1
- cell number change: -11.2%
- AC50 [2]: 6.51 µM [falling, single point]
- AC50 [1]: 3.26 µM [falling, partial curve]
